Earlier results in patent US20140357706A1, “Stearate Compounds” (THE UAB RESEARCH FOUNDATION, priority 2011, published 2014).
For at least one compound, name, drawing or mass did not settle the structure.

Test system: human ovarian granulosa cells
Conditions: 50 μM for 3 days; cited from earlier work

SMILES: CCCCCCCCCCCCCCCC(=O)O [palmitate, reference compound]
- Cell viability: no decrease
